Measurements taken from patent US20110256127A1.
These are yes or no findings as the source states them, for the method shown. Some binding calls cover weakened binding; strength is not graded here.

Chains of the proteins cited; added tags and fusions are not shown. Lines headed by an entry give the natural chain unless they say otherwise; changes in a name come on top.
UniProt O75581: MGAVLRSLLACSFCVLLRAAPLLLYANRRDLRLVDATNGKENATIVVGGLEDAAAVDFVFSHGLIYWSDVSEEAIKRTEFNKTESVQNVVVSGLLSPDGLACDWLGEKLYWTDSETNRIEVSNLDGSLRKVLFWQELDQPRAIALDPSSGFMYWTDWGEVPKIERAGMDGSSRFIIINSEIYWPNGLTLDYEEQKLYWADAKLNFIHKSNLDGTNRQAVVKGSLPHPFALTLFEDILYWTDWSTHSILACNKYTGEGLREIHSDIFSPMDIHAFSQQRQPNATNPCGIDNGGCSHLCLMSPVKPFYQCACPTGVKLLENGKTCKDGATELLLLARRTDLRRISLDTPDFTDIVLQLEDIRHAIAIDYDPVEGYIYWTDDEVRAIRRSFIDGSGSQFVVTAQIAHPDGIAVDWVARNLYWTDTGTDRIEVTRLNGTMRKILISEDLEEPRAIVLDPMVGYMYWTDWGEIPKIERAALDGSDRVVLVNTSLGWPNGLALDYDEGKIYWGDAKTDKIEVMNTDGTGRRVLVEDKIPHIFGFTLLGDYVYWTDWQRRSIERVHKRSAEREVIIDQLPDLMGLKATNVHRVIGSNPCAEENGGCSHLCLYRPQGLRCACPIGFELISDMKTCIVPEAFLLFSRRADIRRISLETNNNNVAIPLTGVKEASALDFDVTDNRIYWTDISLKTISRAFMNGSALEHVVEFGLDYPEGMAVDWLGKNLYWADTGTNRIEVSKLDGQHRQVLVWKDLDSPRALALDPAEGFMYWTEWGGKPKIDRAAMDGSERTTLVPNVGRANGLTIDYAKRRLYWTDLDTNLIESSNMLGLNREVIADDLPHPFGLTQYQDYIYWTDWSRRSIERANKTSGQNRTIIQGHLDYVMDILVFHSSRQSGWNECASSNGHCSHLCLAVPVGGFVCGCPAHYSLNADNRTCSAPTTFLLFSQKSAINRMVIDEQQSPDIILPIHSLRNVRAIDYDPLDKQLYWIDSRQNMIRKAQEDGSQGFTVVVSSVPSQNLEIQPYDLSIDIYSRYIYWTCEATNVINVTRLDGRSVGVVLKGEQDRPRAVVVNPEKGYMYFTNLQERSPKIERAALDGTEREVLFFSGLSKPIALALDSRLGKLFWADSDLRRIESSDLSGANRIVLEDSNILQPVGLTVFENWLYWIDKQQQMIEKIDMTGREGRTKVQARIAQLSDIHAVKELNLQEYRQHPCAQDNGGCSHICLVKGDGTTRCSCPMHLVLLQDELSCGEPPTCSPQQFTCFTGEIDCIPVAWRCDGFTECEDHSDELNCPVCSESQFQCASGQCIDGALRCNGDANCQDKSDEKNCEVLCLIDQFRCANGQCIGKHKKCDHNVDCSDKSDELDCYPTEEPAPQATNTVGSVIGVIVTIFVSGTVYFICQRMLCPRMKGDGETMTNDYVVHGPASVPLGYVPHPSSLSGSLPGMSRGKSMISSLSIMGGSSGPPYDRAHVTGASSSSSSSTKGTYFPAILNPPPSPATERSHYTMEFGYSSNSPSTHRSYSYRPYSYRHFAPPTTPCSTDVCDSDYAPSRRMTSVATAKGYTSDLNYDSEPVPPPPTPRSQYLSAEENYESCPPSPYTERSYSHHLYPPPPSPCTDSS

Biological target: LRP6.E1-E4 protein (Homo sapiens (Human)) (UniProt O75581)
Assay: biolayer interferometry, biotinylated LRP6 E1-E4 on streptavidin biosensors; Wnt9b at 200 nM; association then dissociation phase

- binding: binds
B1: Wnt9b (ligand, mouse, UniProt O35468 24-359, looked up)
chain: AAYFGLTGREVLTPFPGLGTAAAPAQAGAHLKQCDLLKLSRRQKQLCRREPGLAETLRDAAHLGLLECQFQFRQERWNCSLEGRTGLLQRGFKETAFLYAVSAAALTHALARACSAGRMERCTCDDSPGLESRQAWQWGVCGDNLKYSTKFLSNFLGPKRGSKDLRARADAHNTHVGIKAVKSGLRTTCKCHGVSGSCAVRTCWKQLSPFRETGQVLKLRYDTAVKVSSATNEALGRLELWAPAKPGGPAKGLAPRPGDLVYMEDSPSFCRPSKYSPGTAGRVCSRDSSCSSLCCGRGYDTQSRMVVFSCHCQVQWCCYVECQQCAQQELVYTCKR
